Values of other authors, collected in patent publication US8834858B2, “Treatment for dyslipidemia” (Solvotrin Therapeutics Ltd., priority 2011, dated 2014).
Some of these results come from one statement about several compounds together.

Test system: LDL cholesterol, HDL, TG
Settings: 293 patients with dyslipidemia; cited from earlier work

For CC(C)c1nc(N(C)S(C)(=O)=O)nc(-c2ccc(F)cc2)c1/C=C/[C@@H](O)C[C@@H](O)CC(=O)O [rosuvastatin], the “reduction of LDL cholesterol” value is given as −50% to −55.
